Measured values as given in publication PMC4451243.
These are yes or no findings as the source states them, for the method shown. Binding seen in cells or lysates may run through a third protein. Some results given as binding are weak or reduced against the parent protein; the word gives no strength.

By UniProt entry, the sequences of proteins in these tests, tags left out.
UniProt Q03468: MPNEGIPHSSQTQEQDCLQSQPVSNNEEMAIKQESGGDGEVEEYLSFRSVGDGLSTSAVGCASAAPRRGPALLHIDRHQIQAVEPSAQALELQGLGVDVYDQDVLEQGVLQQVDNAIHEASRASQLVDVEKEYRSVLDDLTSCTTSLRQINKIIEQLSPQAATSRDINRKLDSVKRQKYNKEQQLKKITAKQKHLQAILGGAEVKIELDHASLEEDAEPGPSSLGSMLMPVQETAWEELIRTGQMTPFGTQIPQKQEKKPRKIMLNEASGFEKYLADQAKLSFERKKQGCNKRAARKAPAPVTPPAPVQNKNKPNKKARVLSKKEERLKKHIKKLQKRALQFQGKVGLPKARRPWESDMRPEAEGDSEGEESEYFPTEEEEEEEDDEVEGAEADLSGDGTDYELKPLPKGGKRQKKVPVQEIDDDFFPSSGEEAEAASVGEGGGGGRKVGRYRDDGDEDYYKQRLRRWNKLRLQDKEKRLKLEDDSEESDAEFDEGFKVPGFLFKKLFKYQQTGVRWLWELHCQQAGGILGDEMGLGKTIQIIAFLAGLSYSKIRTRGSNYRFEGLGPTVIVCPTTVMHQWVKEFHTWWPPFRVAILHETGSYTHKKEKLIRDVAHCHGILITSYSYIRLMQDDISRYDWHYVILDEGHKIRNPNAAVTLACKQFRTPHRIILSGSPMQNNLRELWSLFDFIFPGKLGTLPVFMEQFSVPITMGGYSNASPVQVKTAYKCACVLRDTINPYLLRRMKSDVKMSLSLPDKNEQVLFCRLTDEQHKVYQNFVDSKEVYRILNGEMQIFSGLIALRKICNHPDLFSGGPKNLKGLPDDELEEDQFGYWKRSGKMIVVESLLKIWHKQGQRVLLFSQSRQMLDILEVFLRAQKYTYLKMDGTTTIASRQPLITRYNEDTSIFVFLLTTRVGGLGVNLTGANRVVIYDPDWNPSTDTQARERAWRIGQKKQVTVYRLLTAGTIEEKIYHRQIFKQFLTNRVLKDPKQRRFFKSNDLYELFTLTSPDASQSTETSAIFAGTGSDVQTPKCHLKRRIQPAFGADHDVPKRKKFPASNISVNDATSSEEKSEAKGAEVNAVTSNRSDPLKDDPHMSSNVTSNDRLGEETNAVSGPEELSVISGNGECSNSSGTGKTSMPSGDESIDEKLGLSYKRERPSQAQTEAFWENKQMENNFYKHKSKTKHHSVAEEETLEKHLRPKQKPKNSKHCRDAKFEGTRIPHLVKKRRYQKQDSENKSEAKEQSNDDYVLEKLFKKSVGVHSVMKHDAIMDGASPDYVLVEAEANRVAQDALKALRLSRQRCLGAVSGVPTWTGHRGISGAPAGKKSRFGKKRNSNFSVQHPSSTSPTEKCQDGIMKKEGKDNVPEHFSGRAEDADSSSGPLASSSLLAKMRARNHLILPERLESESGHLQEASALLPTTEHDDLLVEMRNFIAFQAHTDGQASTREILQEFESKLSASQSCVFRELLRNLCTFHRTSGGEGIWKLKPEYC
UniProt Q92841: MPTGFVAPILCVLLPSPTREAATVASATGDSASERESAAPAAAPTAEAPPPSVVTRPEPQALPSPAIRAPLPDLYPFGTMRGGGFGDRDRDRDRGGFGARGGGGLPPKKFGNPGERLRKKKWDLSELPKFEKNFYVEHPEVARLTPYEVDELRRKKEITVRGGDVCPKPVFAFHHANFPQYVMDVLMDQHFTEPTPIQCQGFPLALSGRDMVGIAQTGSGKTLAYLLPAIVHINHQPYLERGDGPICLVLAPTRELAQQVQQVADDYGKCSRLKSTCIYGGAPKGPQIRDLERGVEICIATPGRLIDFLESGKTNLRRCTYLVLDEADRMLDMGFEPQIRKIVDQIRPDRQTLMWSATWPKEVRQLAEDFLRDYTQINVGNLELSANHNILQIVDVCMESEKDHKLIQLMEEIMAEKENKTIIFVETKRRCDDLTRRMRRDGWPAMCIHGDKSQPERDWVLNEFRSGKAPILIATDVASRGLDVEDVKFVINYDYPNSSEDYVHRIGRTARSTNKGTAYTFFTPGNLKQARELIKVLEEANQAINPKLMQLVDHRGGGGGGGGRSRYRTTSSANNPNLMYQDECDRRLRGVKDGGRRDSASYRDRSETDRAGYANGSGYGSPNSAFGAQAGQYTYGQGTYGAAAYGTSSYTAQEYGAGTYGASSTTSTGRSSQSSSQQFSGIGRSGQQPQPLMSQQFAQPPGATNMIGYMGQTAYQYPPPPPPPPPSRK
UniProt P51531: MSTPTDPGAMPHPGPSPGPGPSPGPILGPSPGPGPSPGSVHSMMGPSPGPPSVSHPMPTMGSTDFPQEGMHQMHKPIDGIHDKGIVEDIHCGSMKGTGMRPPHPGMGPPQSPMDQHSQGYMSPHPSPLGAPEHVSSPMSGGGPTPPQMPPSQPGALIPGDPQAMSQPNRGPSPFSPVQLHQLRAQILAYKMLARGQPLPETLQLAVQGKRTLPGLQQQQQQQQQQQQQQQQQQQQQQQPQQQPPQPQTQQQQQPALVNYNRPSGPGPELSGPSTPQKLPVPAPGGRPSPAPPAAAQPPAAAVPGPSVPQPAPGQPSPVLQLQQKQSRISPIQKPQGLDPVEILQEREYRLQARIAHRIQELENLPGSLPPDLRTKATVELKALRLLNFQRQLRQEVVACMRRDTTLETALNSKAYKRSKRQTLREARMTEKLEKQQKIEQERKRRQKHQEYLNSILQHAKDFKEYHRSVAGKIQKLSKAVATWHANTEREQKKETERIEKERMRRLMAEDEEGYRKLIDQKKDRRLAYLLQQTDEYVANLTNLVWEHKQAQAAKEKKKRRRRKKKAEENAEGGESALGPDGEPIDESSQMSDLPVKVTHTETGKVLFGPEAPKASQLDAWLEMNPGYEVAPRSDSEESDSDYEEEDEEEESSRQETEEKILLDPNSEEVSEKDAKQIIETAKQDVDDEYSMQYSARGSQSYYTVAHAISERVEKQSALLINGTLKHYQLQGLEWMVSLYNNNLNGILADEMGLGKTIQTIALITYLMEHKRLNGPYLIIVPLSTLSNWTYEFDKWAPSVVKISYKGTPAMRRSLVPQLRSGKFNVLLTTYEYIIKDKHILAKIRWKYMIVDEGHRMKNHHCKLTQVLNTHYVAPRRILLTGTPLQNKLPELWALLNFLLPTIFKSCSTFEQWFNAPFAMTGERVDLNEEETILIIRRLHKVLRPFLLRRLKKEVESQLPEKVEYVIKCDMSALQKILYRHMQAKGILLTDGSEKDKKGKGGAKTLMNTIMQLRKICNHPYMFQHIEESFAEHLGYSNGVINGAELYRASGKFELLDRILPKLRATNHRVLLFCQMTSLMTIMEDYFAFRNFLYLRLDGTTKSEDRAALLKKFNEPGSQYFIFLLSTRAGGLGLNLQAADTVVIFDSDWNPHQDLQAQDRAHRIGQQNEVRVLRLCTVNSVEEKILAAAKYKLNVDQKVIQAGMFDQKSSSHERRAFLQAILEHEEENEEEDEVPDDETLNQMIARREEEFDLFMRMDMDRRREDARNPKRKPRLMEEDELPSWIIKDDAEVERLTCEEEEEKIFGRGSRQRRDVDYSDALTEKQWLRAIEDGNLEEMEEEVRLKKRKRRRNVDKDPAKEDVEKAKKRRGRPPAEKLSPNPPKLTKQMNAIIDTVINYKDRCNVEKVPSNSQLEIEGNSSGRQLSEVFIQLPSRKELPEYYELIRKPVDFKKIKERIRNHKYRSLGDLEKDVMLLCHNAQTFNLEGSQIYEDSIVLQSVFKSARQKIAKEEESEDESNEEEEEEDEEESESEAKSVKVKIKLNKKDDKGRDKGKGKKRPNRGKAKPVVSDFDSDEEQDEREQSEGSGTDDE
UniProt P11387: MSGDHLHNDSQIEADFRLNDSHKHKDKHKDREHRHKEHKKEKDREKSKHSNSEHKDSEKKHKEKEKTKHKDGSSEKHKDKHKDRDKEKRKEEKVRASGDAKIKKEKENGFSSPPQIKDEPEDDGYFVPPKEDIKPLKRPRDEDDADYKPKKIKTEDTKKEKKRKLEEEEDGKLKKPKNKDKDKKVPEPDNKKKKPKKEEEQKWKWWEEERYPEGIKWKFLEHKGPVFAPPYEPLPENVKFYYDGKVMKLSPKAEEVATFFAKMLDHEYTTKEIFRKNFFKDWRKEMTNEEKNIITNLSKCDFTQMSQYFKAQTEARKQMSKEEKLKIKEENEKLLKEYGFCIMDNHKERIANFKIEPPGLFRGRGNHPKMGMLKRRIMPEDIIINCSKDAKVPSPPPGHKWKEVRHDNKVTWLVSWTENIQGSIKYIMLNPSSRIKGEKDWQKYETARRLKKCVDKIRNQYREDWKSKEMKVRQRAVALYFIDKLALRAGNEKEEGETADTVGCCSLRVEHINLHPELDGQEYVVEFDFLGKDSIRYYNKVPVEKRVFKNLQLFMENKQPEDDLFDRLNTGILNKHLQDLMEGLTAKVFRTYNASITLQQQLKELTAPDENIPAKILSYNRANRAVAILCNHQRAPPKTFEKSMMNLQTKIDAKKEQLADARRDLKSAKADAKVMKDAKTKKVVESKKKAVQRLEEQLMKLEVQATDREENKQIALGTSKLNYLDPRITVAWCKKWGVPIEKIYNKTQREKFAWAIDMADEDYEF
UniProt O00571: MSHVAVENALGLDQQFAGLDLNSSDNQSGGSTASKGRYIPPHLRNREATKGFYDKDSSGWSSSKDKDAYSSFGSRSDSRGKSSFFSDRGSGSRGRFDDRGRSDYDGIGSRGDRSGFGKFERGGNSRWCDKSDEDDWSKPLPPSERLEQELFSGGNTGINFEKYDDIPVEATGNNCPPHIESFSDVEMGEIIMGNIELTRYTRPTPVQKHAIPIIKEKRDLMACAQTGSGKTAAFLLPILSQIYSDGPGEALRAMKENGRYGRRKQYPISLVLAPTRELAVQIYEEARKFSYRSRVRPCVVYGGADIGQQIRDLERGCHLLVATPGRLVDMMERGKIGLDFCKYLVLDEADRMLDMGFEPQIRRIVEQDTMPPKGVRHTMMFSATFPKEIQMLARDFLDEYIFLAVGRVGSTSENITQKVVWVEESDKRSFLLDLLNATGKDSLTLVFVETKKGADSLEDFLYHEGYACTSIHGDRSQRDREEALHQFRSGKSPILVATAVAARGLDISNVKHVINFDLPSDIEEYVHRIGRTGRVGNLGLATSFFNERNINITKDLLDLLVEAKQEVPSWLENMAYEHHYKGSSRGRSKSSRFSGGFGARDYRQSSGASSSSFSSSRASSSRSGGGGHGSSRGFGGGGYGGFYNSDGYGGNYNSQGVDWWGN
UniProt Q13547: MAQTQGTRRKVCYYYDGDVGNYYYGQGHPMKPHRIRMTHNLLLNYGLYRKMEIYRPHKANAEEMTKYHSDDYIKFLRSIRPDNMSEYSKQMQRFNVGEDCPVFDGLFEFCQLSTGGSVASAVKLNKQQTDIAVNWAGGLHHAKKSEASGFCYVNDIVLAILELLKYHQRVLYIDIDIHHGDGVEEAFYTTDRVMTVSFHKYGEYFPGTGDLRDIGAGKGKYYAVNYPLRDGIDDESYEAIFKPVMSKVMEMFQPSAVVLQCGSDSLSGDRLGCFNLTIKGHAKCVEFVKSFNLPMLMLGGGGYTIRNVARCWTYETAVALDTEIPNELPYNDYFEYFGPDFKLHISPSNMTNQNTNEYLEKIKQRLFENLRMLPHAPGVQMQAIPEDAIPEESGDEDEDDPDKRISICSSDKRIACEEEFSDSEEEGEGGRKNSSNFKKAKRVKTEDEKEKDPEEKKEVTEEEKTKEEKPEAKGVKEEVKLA
UniProt Q09028: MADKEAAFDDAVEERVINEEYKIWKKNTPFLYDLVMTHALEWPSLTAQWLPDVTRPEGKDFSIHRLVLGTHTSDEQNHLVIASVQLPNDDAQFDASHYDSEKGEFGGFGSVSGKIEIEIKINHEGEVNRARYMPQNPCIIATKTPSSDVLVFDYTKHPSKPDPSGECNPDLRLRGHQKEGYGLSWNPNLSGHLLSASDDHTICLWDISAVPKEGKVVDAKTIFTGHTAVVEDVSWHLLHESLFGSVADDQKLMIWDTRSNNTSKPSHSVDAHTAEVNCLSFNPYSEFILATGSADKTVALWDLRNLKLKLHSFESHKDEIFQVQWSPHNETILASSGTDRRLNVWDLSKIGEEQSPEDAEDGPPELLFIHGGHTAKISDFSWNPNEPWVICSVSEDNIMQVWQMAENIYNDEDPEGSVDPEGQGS

The substances below were run against Flag-tagged CSB (human) (UniProt Q03468) (assay: co-IP; lysates (RIPA buffer) of CSIAN cells co-transfected with Flag-tagged CSB and a Myc-tagged protein, 24 hr post transfection; anti-Flag M2-agarose overnight; Western blot with anti-Myc).

“Myc-tagged DDX5 (from UniProt P17844 1-614)” was tested. Which binding did it give?
The binding was “binds”.

With “Myc-tagged DDX17 (from UniProt Q92841 1-729)” as the substance, how does the binding read?
The binding was “binds”.

With “Myc-tagged USP7 (from UniProt Q93009 1-1102)” as the substance, how does the binding read?
The binding was “binds”.

How did the binding turn out when “Myc-tagged SMARCA2 (from UniProt P51531 1-1590)” was run?
Its binding is “binds weakly”.

For “Myc-tagged TOP1 (from UniProt P11387 1-765)”, which binding is on record?
Its binding is “binds”.

For “Myc-tagged XRCC5 (from UniProt P13010 1-732)”, which binding is on record?
The binding was “binds”.

With “Myc-tagged SMARCA1 (from UniProt P28370 1-1042)” as the substance, how does the binding read?
The binding was “binds”.

For “Myc-tagged DDX3X (from UniProt O00571 1-662)”, which binding is on record?
The binding was “binds”.

Which binding does the source give for “Myc-tagged HDAC1 (from UniProt Q13547 1-482)” here?
The binding was “binds”.

Which binding does the source give for “Myc-tagged CAND1 (from UniProt Q86VP6 1-1230)” here?
The binding was “binds”.

For “Myc-tagged PSMD2 (from UniProt Q13200 1-908)”, which binding is on record?
Its binding is “no binding”.

With “Myc-tagged RBBP4 (from UniProt Q09028 1-425)” as the substance, how does the binding read?
The binding was “binds”.

With “Myc-tagged PSMD3 (from UniProt O43242 1-534)” as the substance, how does the binding read?
The binding was “binds”.
